Source: the supplement of paper PMC10735217
Structures can show the parent of a compound that is named as a salt. This is one part of the list. This data set is noisy: repeats of one test often differ as much as different tests do.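 Human kidney-derived cells stably carry a construct in which eight TEAD-binding elements drive luciferase, measured by luminescence in a drug-repurposing library screen. A hit is any compound whose signal exceeds the plate mean by more than five robust Z scores.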

Test system: HEK293A TEAD-LUC reporter
Test: TEAD-luciferase reporter activity (YAP activation), robust Z score vs plate; higher = stronger YAP/TEAD activation
Conditions: 24 h

Structure (SMILES) | TEAD-luciferase reporter activity (compound concentration: 200 nM) | TEAD-luciferase reporter activity (compound concentration: 2 uM) | TEAD-luciferase reporter activity (compound concentration: 10 uM)
COc1ccc2[nH]c(S(=O)Cc3ncc(C)c(OC)c3C)nc2n1 (stereo not drawn) | inactive: -2.39 | inactive: -0.856 | inactive: 1.22
NC(=O)c1[nH]c2ccc(Cl)cc2c1Sc1ccccc1 | inactive: 0.589 | inactive: 1.39 | inactive: -0.00561
COC(=O)c1ccccc1NC(=O)CN(C)C | inactive: -0.805 | inactive: 1.73 | inactive: 1.87
COc1ccc([C@@H]2[C@@H](CC[C@H](O)c3ccc(F)cc3)C(=O)N2c2ccc(CNC(=O)CCCCCCCCCCC(=O)NC[C@H](O)[C@@H](O)[C@H](O)[C@H](O)CO)cc2)cc1 [Canosimibe] | inactive: -0.425 | inactive: -0.54 | inactive: -0.879
c1ccc2c(CCNc3ccc(Nc4ccncc4)cc3)c[nH]c2c1 [serdemetan] | inactive: -1.47 | inactive: 1.12 | inactive: 3.65
CCC[N+]12C3C[C@H](C4C(O)[C@]5(C[C@@H]41)c1ccccc1N(C)[C@@H]35)[C@H](CC)[C@H]2O (stereo partly drawn) [Prajmalium bitartrate] | inactive: 0.707 | inactive: 0.682 | inactive: 2.65
COc1ccccc1SC[C@@H](C)CN[C@@H]1COc2ccccc2SC1 | inactive: -1.33 | inactive: -0.669 | inactive: 2.79
CCCCCCCCCCCCCCCCOCCCOP(=O)(O)CO[C@H](CO)Cn1ccc(N)nc1=O | inactive: -0.66 | inactive: -0.538 | inactive: -0.342
COc1cc(N)c(Cl)cc1C(=O)NC1CCNCC1OC (stereo not drawn) [Ticalopride] | inactive: 0.843 | inactive: -1.11 | inactive: -0.515
CCCCCCCCCC(=O)N[C@@H](Cc1c[nH]c2ccccc12)C(=O)N[C@H](CC(N)=O)C(=O)N[C@@H](CC(=O)O)C(=O)N[C@@H]1C(=O)NCC(=O)N[C@@H](CCCN)C(=O)N[C@@H](CC(=O)O)C(=O)N[C@H](C)C(=O)N[C@@H](CC(=O)O)C(=O)NCC(=O)N[C@H](CO)C(=O)N[C@@H]([C@H](C)CC(=O)O)C(=O)N[C@@H](CC(=O)c2ccccc2N)C(=O)O[C@@H]1C [Daptomycin] | inactive: -0.0228 | inactive: 0.215 | inactive: 1.01
COc1cc(CNCCC2CCOCC2)ccc1Oc1cnc(C(N)=O)cn1 [bevenopran] | inactive: -1.3 | inactive: 1.95 | inactive: 1.13
CC1(C)O[C@@H]2C[C@H]3[C@@H]4C[C@H](F)C5=CC(=O)C=C[C@]5(C)[C@@]4(F)[C@@H](O)C[C@]3(C)[C@]2(C(=O)CO)O1 | inactive: -0.11 |  | inactive: 0.735
CC1(C)O[C@@H]2C[C@H]3[C@@H]4C[C@H](F)C5=CC(=O)C=C[C@]5(C)[C@@]4(F)[C@@H](O)C[C@]3(C)[C@]2(C(=O)CO)O1 [fluocinolone acetonide sustained-release implant] |  | inactive: 0.162 | 
Cn1cncc1[C@@](N)(c1ccc(C#N)cc1)c1cc2cc(C#N)cc(-c3cccc(F)c3)c2o1 | inactive: -0.874 | inactive: 2.98 | inactive: -1.15
CC1(CN2CCC(n3c(=O)[nH]c4ccccc43)CC2)OCc2ccccc2-n2cccc21 (stereo not drawn) [Zaldaride maleate] |  | inactive: -1.33 | 
CC(C)N(C[C@H]1O[C@@H](n2cnc3c(N)ncnc32)[C@H](O)[C@@H]1O)[C@H]1C[C@@H](CCc2nc3cc(C(C)(C)C)ccc3[nH]2)C1 [Pinometostat] | inactive: 1.76 | inactive: -0.776 | inactive: -0.786
O=C(O)CCc1nc(-c2ccccc2)c(-c2ccccc2)o1 [oxaprozin] |  | inactive: -1.29 | 
O=C(O)CCc1nc(-c2ccccc2)c(-c2ccccc2)o1 | inactive: 0.319 |  | inactive: 1.36
COc1cc2ncnc(N3CCN(C(=O)OCC(C)(C)O)CC3)c2cc1OC | inactive: 0.82 | inactive: -0.291 | inactive: 0.616
CCN(C)c1nc2ccc(C(=O)N(CC(C)C)C[C@@H](O)[C@H](Cc3ccccc3)NC(=O)OCc3cncs3)cc2o1 | inactive: 2.03 | inactive: 0.251 | inactive: -1.04
CCCC(=O)O[C@H]1[C@@H]([N+]2(C)CCCCC2)C[C@H]2[C@@H]3CC[C@H]4C[C@H](OC(C)=O)[C@@H](N5CCCCC5)C[C@]4(C)[C@H]3CC[C@@]21C | inactive: -0.923 | inactive: -0.0893 | inactive: 0.369
N#Cc1ccc2c(c1)[C@@H]1CN(CCCCNC(=O)c3ccc(-c4ccccc4)cc3)C[C@H]1CO2 | inactive: -0.706 | inactive: -1.68 | inactive: 1.82
C/C(O)=C(\C#N)C(=O)Nc1ccc(C(F)(F)F)cc1 [2-cyano-3-hydroxy-n-[4-(Trifluoromethyl)phenyl]but-2-enamide] | inactive: 4.13 |  | active: 5.41
C/C(O)=C(\C#N)C(=O)Nc1ccc(C(F)(F)F)cc1 [Teriflunomide] |  | inactive: 1.48 | 
O=C(O)[C@H](O)Cc1ccc(O)c(O)c1 [alpha-Hydroxyhydrocaffeic acid] | inactive: 0.0632 | inactive: -1.5 | inactive: -1.36

Quoted from the listing:
Entry of Cn1cncc1[C@@](N)(c1ccc(C#N)cc1)c1cc2cc(C#N)cc(-c3cccc(F)c3)c2o1 under TEAD-luciferase reporter activity (compound concentration: 2 uM): inactive: 2.98
Entry of NC(=O)c1[nH]c2ccc(Cl)cc2c1Sc1ccccc1 under TEAD-luciferase reporter activity (compound concentration: 200 nM): inactive: 0.589

Quoted at random: two entries already listed.
Structure (SMILES) | TEAD-luciferase reporter activity (compound concentration: 200 nM) | TEAD-luciferase reporter activity (compound concentration: 2 uM) | TEAD-luciferase reporter activity (compound concentration: 10 uM)
NC(=O)c1[nH]c2ccc(Cl)cc2c1Sc1ccccc1 | inactive: 0.589 | inactive: 1.39 | inactive: -0.00561
c1ccc2c(CCNc3ccc(Nc4ccncc4)cc3)c[nH]c2c1 [serdemetan] | inactive: -1.47 | inactive: 1.12 | inactive: 3.65

Additional results follow.

Structure (SMILES) | TEAD-luciferase reporter activity (compound concentration: 200 nM) | TEAD-luciferase reporter activity (compound concentration: 2 uM) | TEAD-luciferase reporter activity (compound concentration: 10 uM)
Nc1nc(=O)n([C@H]2C[C@H](O)[C@@H](CO)O2)cc1F | inactive: -2.36 | inactive: -0.912 | inactive: 1.17
CC(C)(C)OC(=O)NCCN1CC2CN(CCOc3ccc(C#N)cc3F)CC(C1)O2 | inactive: -2.09 | inactive: 0.119 | inactive: 1.11
O=C(Nc1ccc(C(=O)O)c(O)c1)c1ccccc1 | inactive: 0.0327 | inactive: -0.00896 | inactive: -0.253
CC(C)=CCC/C(C)=C/CNCCNC1C2CC3CC(C2)CC1C3 (stereo not drawn) | inactive: 1.01 | inactive: -1.46 | inactive: 1.74
C[C@@H]1CN(c2ccc(OC(F)(F)F)cc2)C[C@H](C)N1S(=O)(=O)c1cccc2c1CC(C(=O)O)C2 (stereo partly drawn) | inactive: 2.35 | inactive: 0.133 | inactive: 0.705
CCC1CN2C(C)=Nc3c(C)nn(C)c3C2=N1 (stereo not drawn) | inactive: -0.328 | inactive: -1.56 | inactive: -0.853
C[C@](O)(C(=O)Nc1cccc2c1C(=O)c1sccc1CS2(=O)=O)C(F)(F)F | inactive: -1.15 | inactive: -0.022 | inactive: 3.3
O=C(O)CCCCO/N=C(/c1cccnc1)c1cccc(C(F)(F)F)c1 [Ridogrel] | inactive: 0.375 | inactive: -0.471 | inactive: 1.14
CC(C)(Oc1ccc(C(=O)c2ccc(Cl)cc2)cc1)C(=O)O [Choline fenofibrate] | inactive: 1.73 | inactive: -1.6 | inactive: 0.091
Nc1ccc(CC(C(=O)O)c2cn(C3CCCCC3)cn2)cn1 (stereo not drawn) | inactive: 0.0388 | inactive: -1.08 | inactive: 2.73
CN(C)CCN(C)n1cc(-c2ccccc2)c2ccccc21 | inactive: -1.25 | inactive: -0.224 | inactive: -0.288
CN(C)[C@@H]1C(=O)C(C(=O)NCNCCCC[C@H](N)C(=O)O)C(=O)[C@@]2(O)C(=O)C3C(=O)c4c(O)cccc4[C@@](C)(O)[C@H]3C[C@@H]12 (stereo partly drawn) [Ciclolysal] | inactive: -1.58 | inactive: -0.374 | inactive: 0.315
CCOC(=O)C1=C(c2ccccc2)c2ccc(OCCCc3ccccc3)cc2/C1=[N+](\C)[O-] | inactive: 0.96 | inactive: -0.216 | inactive: 1.42
CC(C)(C)NCC(O)c1cc(O)cc(O)c1 (stereo not drawn) [terbutaline gel] |  | inactive: 0.865 | 
CC(C)(C)NCC(O)c1cc(O)cc(O)c1 (stereo not drawn) | inactive: -0.35 |  | inactive: 0.0377
CC(C)Cc1ccc(C(C)C(=O)OCCN2CCN(c3cccc(Cl)c3)CC2)cc1 (stereo not drawn) [Lobuprofen hydrochloride] | inactive: 0.839 | inactive: 2.06 | inactive: 2.99
CN1CC[C@H](N(C)C(=O)N2CC(c3cc(F)ccc3F)=C[C@@]2(CO)c2ccccc2)[C@H](F)C1 | inactive: -0.212 | inactive: -0.839 | inactive: 0.625
Fc1ccc(Cn2c(NC3CCNCC3)nc3ccccc32)cc1 | inactive: -1.47 | inactive: 0.0787 | inactive: 0.992
CO[C@H]1C[C@@H](CO[C@H]2CC[C@H](C(=O)O)CC2)N(C(=O)Cc2cc(Cl)c(NC(=O)c3cn(C)c4ccccc34)cc2Cl)C1 | inactive: -1.33 | inactive: 0.178 | inactive: -0.348
CC[P](CC)(CC)=[Au][S][C@@H]1O[C@H](COC(C)=O)[C@@H](OC(C)=O)[C@H](OC(C)=O)[C@H]1OC(C)=O |  | inactive: 4.09 | 
CC[P](CC)(CC)=[Au][S][C@@H]1O[C@H](COC(C)=O)[C@@H](OC(C)=O)[C@H](OC(C)=O)[C@H]1OC(C)=O [Auranofin] | inactive: 0.569 |  | active: 5.93
COc1cnc(OC)c2c1c(C(=O)C(=O)N1CCN(C(=O)c3ccccc3)CC1)cn2COP(=O)(O)O | inactive: -0.961 | inactive: -0.67 | inactive: -0.835
COc1cc2c(cc1OC)C(C)N(CCc1ccc(N)cc1)CC2 (stereo not drawn) | inactive: 0.275 | inactive: 2.21 | inactive: -0.471
C[n+]1ccccc1C=NO [Pralidoxime chloride] | inactive: 0.759 | inactive: -1.63 | inactive: 0.578
COc1ccc(Cl)c(Nc2ncnc3cc(OCC4CCN(C)CC4)c(OC)cc23)c1 | inactive: 0.487 | inactive: -1.98 | inactive: -1.87
